Laboratory results taken from patent WO2019216345A1.
No constants are given. Whether binding was seen depends on the method and setting. Binding can be weak; no strength is given. Where a sequence is shown, tags or fusion partners need not be part of it.

Target: Myc-drebrin A
Assay: Western blot, extract of HEK293 cells expressing Myc-drebrin A, binder as primary antibody, HRP-labeled anti-human IgG antibody

binding: binds
B1: Drebrin-binding peptide-human IgG Fc fusion antibody in which #1 peptide is fused with the Fc region of human IgG antibody (#1Fc antibody) (Fc fusion, not shown: a dimerising Fc or GST)
chain: QVQLVESGGGLVRAGGSLRLSCAATGRTFSAYTMGWFRQAPGKEREFVAAVTRSSTSTYYAGSVKGRFTISRDNAKNMVYLQMNNLEPEDTAVYYCHARRPSTTGHWGQGTQVTVSSEPKTPKPQSA
